Earlier results, collected in patent US20120041035A1, “LEVAMLODIPINE COMPOUND PHARMACEUTICAL COMPOSITION” (SHIHUIDA PHARMACEUTICALS GROUP (JILIN) LTD, priority 2010, published 2012).
At least one structure is not confirmed: it was looked up by name or label, or the drawing left a doubt.

Test system: calcium channel
Settings: cited from earlier work

CCOC(=O)C1=C(COCCN)NC(C)=C(C(=O)OC)[C@@H]1c1ccccc1Cl [Levamlodipine, 3-ethyl-5-methyl-2-(2-aminoethoxymethyl)-4-(2-chlorophenyl)-1,4-dihydro-6-methyl-3,5-pyridine dicarboxylate]
calcium antagonism activity relative to the dextro isomer (ratio laevo isomer to dextro isomer): 1000 times | calcium antagonism activity relative to a raceme (ratio laevo isomer to raceme): 2 times
